Assay results from patent US20030162221A1.
These are yes or no findings as the source states them, for the method shown. In cells and extracts the contact can be indirect. Some results given as binding are weak or reduced against the parent protein; the word gives no strength. For some of these results: Where a sequence is shown, tags or fusion partners need not be part of it.

Sequences of proteins named here, by UniProt entry; tags and fusion partners are left off.
UniProt P32481: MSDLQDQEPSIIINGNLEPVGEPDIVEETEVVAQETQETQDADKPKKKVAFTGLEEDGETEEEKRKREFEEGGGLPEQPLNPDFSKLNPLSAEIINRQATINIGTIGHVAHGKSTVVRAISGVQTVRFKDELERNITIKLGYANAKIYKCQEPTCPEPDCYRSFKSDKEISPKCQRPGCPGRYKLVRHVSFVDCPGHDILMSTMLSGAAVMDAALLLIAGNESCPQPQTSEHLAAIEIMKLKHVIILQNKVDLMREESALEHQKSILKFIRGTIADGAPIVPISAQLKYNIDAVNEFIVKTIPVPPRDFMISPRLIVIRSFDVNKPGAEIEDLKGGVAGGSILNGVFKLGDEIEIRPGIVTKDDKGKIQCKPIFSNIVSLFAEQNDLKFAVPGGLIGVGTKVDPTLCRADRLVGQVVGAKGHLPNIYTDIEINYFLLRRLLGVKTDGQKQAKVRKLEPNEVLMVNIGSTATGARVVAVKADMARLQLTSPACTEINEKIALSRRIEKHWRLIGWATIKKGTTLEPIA

T1: Sui3 (Saccharomyces cerevisiae) (UniProt P09064)
T1 sequence (looked up): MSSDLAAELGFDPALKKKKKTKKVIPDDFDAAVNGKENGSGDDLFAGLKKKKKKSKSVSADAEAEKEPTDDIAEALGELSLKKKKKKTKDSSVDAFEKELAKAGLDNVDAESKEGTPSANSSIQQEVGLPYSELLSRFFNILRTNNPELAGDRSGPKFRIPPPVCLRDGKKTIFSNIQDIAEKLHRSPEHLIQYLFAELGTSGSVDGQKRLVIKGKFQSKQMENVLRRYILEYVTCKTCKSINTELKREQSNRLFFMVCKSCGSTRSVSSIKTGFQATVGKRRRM

T2: Mkk2 (Saccharomyces cerevisiae) (UniProt P32491)
T2 sequence (looked up): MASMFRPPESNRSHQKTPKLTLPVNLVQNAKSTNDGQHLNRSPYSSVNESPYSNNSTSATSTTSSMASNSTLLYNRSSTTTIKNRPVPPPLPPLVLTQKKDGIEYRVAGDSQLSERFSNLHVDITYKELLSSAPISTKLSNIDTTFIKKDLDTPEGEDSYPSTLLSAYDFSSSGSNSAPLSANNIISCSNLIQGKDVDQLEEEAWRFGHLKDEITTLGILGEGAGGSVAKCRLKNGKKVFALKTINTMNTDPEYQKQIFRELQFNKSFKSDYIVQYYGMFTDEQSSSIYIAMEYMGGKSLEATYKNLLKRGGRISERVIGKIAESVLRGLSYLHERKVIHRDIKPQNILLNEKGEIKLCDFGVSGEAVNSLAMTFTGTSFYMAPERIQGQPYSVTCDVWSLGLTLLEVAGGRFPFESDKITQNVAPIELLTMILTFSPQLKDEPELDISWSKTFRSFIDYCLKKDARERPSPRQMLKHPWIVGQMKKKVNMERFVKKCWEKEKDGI

T3: Bck1 (Saccharomyces cerevisiae) (UniProt Q01389)
T3 sequence (looked up): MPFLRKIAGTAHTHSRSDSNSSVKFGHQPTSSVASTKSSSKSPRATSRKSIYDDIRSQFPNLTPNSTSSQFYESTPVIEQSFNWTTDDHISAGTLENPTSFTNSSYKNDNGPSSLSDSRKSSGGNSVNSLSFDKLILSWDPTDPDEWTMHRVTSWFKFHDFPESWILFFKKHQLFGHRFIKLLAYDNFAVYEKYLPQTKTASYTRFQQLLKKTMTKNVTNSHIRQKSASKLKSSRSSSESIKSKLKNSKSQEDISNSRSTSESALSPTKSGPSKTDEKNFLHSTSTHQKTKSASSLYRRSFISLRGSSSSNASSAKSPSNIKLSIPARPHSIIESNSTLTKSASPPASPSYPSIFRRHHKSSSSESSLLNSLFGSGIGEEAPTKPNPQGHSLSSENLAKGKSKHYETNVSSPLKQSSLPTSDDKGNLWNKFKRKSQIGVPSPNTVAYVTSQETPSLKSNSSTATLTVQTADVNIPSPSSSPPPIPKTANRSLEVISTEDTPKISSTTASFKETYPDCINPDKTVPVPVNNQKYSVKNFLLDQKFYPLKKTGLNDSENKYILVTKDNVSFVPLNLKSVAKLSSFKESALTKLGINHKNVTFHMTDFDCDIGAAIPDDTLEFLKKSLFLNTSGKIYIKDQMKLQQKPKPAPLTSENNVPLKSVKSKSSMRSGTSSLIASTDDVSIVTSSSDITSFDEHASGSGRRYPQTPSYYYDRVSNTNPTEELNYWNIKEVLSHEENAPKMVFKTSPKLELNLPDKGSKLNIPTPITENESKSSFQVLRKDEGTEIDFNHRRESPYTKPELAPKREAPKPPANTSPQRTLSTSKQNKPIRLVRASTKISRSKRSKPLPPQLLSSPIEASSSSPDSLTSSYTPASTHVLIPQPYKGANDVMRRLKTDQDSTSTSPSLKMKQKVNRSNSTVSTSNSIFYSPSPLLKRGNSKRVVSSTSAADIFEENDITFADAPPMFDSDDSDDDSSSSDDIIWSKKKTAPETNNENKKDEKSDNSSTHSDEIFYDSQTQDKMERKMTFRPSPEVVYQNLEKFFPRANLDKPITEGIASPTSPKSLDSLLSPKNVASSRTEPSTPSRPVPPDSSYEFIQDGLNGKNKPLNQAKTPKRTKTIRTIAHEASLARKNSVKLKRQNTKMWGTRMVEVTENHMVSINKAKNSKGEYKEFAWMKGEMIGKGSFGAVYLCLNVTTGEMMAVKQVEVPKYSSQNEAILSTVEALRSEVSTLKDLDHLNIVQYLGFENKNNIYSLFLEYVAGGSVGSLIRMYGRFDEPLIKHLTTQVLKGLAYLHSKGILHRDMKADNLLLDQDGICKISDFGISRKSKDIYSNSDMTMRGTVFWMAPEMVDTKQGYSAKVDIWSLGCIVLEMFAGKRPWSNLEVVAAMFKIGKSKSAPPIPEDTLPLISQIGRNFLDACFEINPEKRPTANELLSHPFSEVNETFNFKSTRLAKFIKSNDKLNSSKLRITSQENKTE

B1: Sui2 (protein, Saccharomyces cerevisiae, UniProt P20459 1-304, looked up)
chain: MSTSHCRFYENKYPEIDDIVMVNVQQIAEMGAYVKLLEYDNIEGMILLSELSRRRIRSIQKLIRVGKNDVAVVLRVDKEKGYIDLSKRRVSSEDIIKCEEKYQKSKTVHSILRYCAEKFQIPLEELYKTIAWPLSRKFGHAYEAFKLSIIDETVWEGIEPPSKDVLDELKNYISKRLTPQAVKIRADVEVSCFSYEGIDAIKDALKSAEDMSTEQMQVKVKLVAAPLYVLTTQALDKQKGIEQLESAIEKITEVITKYGGVCNITMPPKAVTATEDAELQALLESKELDNRSDSEDDEDESDDE
B2: Slt2 (protein, Saccharomyces cerevisiae, UniProt Q00772 1-484, looked up)
chain: MADKIERHTFKVFNQDFSVDKRFQLIKEIGHGAYGIVCSARFAEAAEDTTVAIKKVTNVFSKTLLCKRSLRELKLLRHFRGHKNITCLYDMDIVFYPDGSINGLYLYEELMECDMHQIIKSGQPLTDAHYQSFTYQILCGLKYIHSADVLHRDLKPGNLLVNADCQLKICDFGLARGYSENPVENSQFLTEYVATRWYRAPEIMLSYQGYTKAIDVWSAGCILAEFLGGKPIFKGKDYVNQLNQILQVLGTPPDETLRRIGSKNVQDYIHQLGFIPKVPFVNLYPNANSQALDLLEQMLAFDPQKRITVDEALEHPYLSIWHDPADEPVCSEKFEFSFESVNDMEDLKQMVIQEVQDFRLFVRQPLLEEQRQLQLQQQQQQQQQQQQQQQQPSDVDNGNAAASEENYPKQMATSNSVAPQQESFGIHSQNLPRHDADFPPRPQESMMEMRPATGNTADIPPQNDNGTLLDLEKELEFGLDRKYF

Tests used:
Experiment in all cases: anti-FLAG co-IP, LC-MS/MS
[1] = target: Gcd11 (Saccharomyces cerevisiae) (UniProt P32481)
[2] = target: T1, Sui3 (Saccharomyces cerevisiae)
[3] = target: T2, Mkk2 (Saccharomyces cerevisiae)
[4] = target: T3, Bck1 (Saccharomyces cerevisiae)

Binder	binding [1]	binding [2]	binding [3]	binding [4]
B1	binds	binds		
B2			binds	binds
